Assay results as given in paper PMC8048842 (Chembiochem, 2021).

Tested on: BON and BON‐SSTR2 tumors
Assay: Histological ex vivo examination of tumor sections (confocal laser scanning microscopy)
Format: in vivo, mouse

Compound	ICC fluorescence in wild‐type BON tumor sections (mean grey value) (6 nmol i.v., mice n=3 sacrificed 5 h p.i., confocal laser scanning microscopy)	ICC fluorescence in tumor sections at PET tracer dose (mice sacrificed 1 h p.i., tracer dose of PET/MRI scan, SSTR2‐overexpressing and wild‐type tumor sections, confocal laser microscope)
C[C@@H](O)[C@H](NC(=O)[C@@H]1CSSC[C@H](NC(=O)[C@@H](Cc2ccccc2)NC(=O)c2ccc3c(c2)C(C)(C)/C(=C/C=C/C2=[N+](C)c4ccc(CNC(=O)CNC(=O)CN5CCN(CC(=O)O)CCN(CC(=O)O)CCN(CC(=O)O)CC5)cc4C2(C)C)N3CCCCS(=O)(=O)[O-])C(=O)N[C@@H](Cc2ccc(O)cc2)C(=O)N[C@H](Cc2c[nH]c3ccccc23)C(=O)N[C@@H](CCCCN)C(=O)N[C@@H]([C@@H](C)O)C(=O)N1)C(=O)O [^natGa‐DOTA‐ICC‐TATE, metal not drawn]	12.4±3.3	
C[C@@H](O)[C@H](NC(=O)[C@@H]1CSSC[C@H](NC(=O)[C@@H](Cc2ccccc2)NC(=O)c2ccc3c(c2)C(C)(C)/C(=C/C=C/C2=[N+](C)c4ccc(CNC(=O)CNC(=O)CN5CCN(CC(=O)O)CCN(CC(=O)O)CCN(CC(=O)O)CC5)cc4C2(C)C)N3CCCCS(=O)(=O)[O-])C(=O)N[C@@H](Cc2ccc(O)cc2)C(=O)N[C@H](Cc2c[nH]c3ccccc23)C(=O)N[C@@H](CCCCN)C(=O)N[C@@H]([C@@H](C)O)C(=O)N1)C(=O)O [^68Ga‐DOTA‐ICC‐TATE, metal not drawn]		no fluorescence above background level was detected
